The values below come from patent publication US20090274695A1.

These are yes or no findings as the source states them, for the method shown. A result given as binding can be weak or reduced; the word gives no strength. Tags and fused reporters may be left off the sequences shown.

Experiment [1] concerns the target Enzymatically biotinylated uPAR immobilized on avidin-coated plate. As to the kind of experiment: biotinylated uPAR on avidin-coated plate probed with CYTL1-AP, AP substrate.
For experiment [2] the target is unchanged. As to the kind of experiment: plate assay: enzymatically biotinylated uPAR on avidin-coated plate probed with CYTL1-AP conditioned medium, AP substrate.

B1: Human CYTL1-alkaline phosphatase fusion protein (protein, not shown: large carriers)
chain: TPPTCYSRMRALSQEITRDFNLLQVSEPSEPCVRYLPRLYLDIHNYCVLDKLRDFVASPPCWKVAQVDSLKDKARKLYTIMNSFCRRDLVFLLDDCNALEYPIPVTTVLPDRQR
Consider B1, for which the binding entry in experiment [1] and in experiment [2] was “binds” in each case.
